Measured values reported in paper PMC4742162.
These are yes or no findings as the source states them, for the method shown. In cells and extracts the contact can be indirect. Some entries that bind do so weakly or less than the wild type. For some of these results: Sequences can lack the tags named with a protein. Values belong to the molecule of their own block, whether it stands above or below them.

Sequences of proteins named here, by UniProt entry; tags and fusion partners are left off.
UniProt O95922: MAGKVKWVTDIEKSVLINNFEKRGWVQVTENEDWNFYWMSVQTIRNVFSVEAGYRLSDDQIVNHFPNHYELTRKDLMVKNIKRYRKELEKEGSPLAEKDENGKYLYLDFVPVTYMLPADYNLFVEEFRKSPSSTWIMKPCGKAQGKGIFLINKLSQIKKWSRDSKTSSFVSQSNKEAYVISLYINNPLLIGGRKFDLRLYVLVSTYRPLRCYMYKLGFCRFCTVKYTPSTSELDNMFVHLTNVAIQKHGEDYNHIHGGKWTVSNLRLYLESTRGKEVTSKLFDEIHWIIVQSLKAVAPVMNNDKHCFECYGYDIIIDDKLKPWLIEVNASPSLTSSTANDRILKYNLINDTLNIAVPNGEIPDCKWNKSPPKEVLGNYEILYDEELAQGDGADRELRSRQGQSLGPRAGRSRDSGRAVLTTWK

Tests used:
[1] = target: T1, YFP-tagged SEPT2 (UniProt Q15019); experiment: co-IP; MT fractions (MTs depolymerized by calcium) of transfected Tr cells incubated with anti-GFP/YFP-coated beads (GFP Trap_M); 10 mM Tris pH 7.5, 150 mM NaCl, 5 mM EDTA, 1% CHAPS; 4°C, 16 h; last two washes at 300 mM salt; immunoblot
T1 sequence: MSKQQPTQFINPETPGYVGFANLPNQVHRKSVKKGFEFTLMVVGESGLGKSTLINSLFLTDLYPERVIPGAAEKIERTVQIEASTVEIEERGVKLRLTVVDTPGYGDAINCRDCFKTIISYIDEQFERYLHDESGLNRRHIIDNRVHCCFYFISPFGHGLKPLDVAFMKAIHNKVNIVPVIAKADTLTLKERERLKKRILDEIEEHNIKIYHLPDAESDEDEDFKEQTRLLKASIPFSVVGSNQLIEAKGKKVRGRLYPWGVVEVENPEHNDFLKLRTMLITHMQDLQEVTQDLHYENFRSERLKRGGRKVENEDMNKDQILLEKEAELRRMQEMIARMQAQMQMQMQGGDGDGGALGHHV

[2] = target: T2, endogenous SEPT2 (human (endogenous in MDA-MB 231)) (UniProt Q15019); experiment: co-IP; MT fractions of Tr cells incubated with rabbit anti-SEPT2 antibody on protein G sepharose beads (non-specific serum as control); 10 mM Tris pH 7.5, 150 mM NaCl, 5 mM EDTA, 1% CHAPS; 4°C, 16 h; last two washes at 300 mM salt; immunoblot
T2 sequence: T1 sequence

[3] = target: T1, YFP-tagged SEPT2; experiment: condition: only in Ts cells (septin filaments not associated with MTs); co-IP; MT fractions of transfected Taxol-sensitive (Ts) cells incubated with anti-GFP/YFP-coated beads (GFP Trap_M); same buffer and washes as for Tr cells; immunoblot
[4] = target: T3, YFP-tagged TTLL11 (UniProt A4Q9F4); experiment: co-IP; MT fractions (MTs depolymerized by calcium) of transfected Tr cells incubated with anti-GFP/YFP-coated beads (GFP Trap_M); 10 mM Tris pH 7.5, 150 mM NaCl, 5 mM EDTA, 1% CHAPS; 4°C, 16 h; last two washes at 300 mM salt; immunoblot
T3 sequence: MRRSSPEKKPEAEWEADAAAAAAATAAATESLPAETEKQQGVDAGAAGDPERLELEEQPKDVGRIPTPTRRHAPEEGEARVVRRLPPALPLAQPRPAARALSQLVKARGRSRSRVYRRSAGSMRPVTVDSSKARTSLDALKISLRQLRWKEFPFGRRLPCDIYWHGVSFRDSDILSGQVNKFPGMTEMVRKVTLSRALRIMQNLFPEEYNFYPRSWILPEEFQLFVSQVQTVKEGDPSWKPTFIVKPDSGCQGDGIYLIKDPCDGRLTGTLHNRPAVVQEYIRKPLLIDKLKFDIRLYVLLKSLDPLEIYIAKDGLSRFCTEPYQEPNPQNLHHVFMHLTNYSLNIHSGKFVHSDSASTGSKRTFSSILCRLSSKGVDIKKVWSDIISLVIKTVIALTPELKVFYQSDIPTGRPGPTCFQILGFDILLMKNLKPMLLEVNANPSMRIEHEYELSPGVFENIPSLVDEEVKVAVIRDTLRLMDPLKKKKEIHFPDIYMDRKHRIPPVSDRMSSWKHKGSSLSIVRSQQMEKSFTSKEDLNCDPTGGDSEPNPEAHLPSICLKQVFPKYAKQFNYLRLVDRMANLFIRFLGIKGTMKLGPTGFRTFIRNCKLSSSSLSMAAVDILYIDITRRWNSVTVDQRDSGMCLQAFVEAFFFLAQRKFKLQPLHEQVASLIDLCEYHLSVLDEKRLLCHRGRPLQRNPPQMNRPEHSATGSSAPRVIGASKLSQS

binding [1]: binds
binding [2]: binds
binding [3]: no binding
Molecule: TTLL1 (from UniProt O95922 1-423) (enzyme)

binding [4]: binds
B1: V5-tagged SEPT9_i1 (protein, UniProt Q9UHD8 1-586)
chain: MKKSYSGGTRTSSGRLRRLGDSSGPALKRSFEVEEVETPNSTPPRRVQTPLLRATVASSTQKFQDLGVKNSEPSARHVDSLSQRSPKASLRRVELSGPKAAEPVSRRTELSIDISSKQVENAGAIGPSRFGLKRAEVLGHKTPEPAPRRTEITIVKPQESAHRRMEPPASKVPEVPTAPATDAAPKRVEIQMPKPAEAPTAPSPAQTLENSEPAPVSQLQSRLEPKPQPPVAEATPRSQEATEAAPSCVGDMADTPRDAGLKQAPASRNEKAPVDFGYVGIDSILEQMRRKAMKQGFEFNIMVVGQSGLGKSTLINTLFKSKISRKSVQPTSEERIPKTIEIKSITHDIEEKGVRMKLTVIDTPGFGDHINNENCWQPIMKFINDQYEKYLQEEVNINRKKRIPDTRVHCCLYFIPATGHSLRPLDIEFMKRLSKVVNIVPVIAKADTLTLEERVHFKQRITADLLSNGIDVYPQKEFDEDSEDRLVNEKFREMIPFAVVGSDHEYQVNGKRILGRKTKWGTIEVENTTHCEFAYLRDLLIRTHMQNIKDITSSIHFEAYRVKRLNEGSSAMANGMEEKEPEAPEM
